## Primary screen of a compound library

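Whole-cell growth test on Mycobacterium tuberculosis, read after 4 days in a medium based on cholesterol and the lipid DPPC; the read-out is not stated. Compounds at 500 µM. Direction is inferred from retests: higher values go with more growth inhibition. About 18,000 compounds were tested under these conditions; 5% (about 900) showed 50% or more at least once.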

Each number is a percent effect as filed. How 0% and 100% were set is not recorded. Most values in the screen are low, and negative values occur. Compounds were drawn at random from those tested, without regard to their results.

Result for CS(=O)(=O)c1nc2ccccc2n1CCC(N)=O was -3.542%. O=C1NCC(O)n2c1cc(Br)c2Br (centres undefined) gave -12.72%. With Cn1nc(C(=O)N2CCCC2c2ccco2)ccc1=O (centres undefined) the screen gave -0.4985%. For Cc1c(Br)cnc(N)c1N the result was -47.8%. Result for Cc1cc(F)cc(C(=O)N(C)C(C)CN)c1 (centres undefined) was -9.39%.

For Cc1cc(C(C)NC(=O)CN2CSCC2=O)c(C)s1 (centres undefined) the result was 17.44%. Cc1ccc(Br)c(C(=O)NC2CCS(=O)(=O)CC2)c1 gave -14.96%. O=C1CCCCN1CC1CCNCC1 read -8.06%. Result for CCOCCC(=O)N1CCC2(CCCN(C)C2=O)C1 (centres undefined) was 3.803%. With O=C(Nc1ccccn1)N1CCCN(C2CC2)CC1 the screen gave 20.62%.

With Cc1cc(C#N)ccc1CO the screen gave 6.769%. For Cc1nc(CN2CCCSCC2)oc1C the result was 1.178%. With Cc1cnc(C)c(N2CCNCC2)n1 the screen gave 3.203%. Cc1cnn(CCNC(C)C(=O)Nc2cc(C)no2)c1 (centres undefined) gave 19.7%. For CN1CCC(N(C)C(=O)c2ccc(C#N)cc2)CC1 the result was -4.269%.

CCc1cc(C(=O)NCCS(=O)(=O)N(C)C)cs1 read 34.92%. Result for CN(Cc1ccsc1)C(=O)CNC(=O)c1ccc(Br)o1 was 72.22%. With OCCNCCNCc1cccc(Cl)c1Cl the screen gave 52.78%. NC(=O)CCNCc1ccc(Cl)c2cccnc12 gave 14.95%. Result for N#CC1(NC(=O)CN2CCC(CO)CC2)CCCCC1 was 19.49%.

For CC1COc2ccccc2N1CC(N)=O (centres undefined) the result was 7.525%. CC(C)(C)c1ccccc1S(=O)(=O)NCCN gave 8.305%. For C[C@H]1C[C@@H](CO)CCN1 the result was -8.822%. CC1(C)CN(CC(O)C(F)(F)F)CCO1 (centres undefined) gave -17.97%. Result for CC(=O)NC1CCN(CC(=O)Nc2ccccc2)CC1 was -9.391%.

With Cc1ccc(Cl)c(NC(=O)NCCNC(=O)N(C)C)c1 the screen gave 0.6967%. CC(C)C(=O)Nc1ccc(CN2CCN(C)CC2)cc1 read -6.128%. For CCS(=O)(=O)NCCCn1ccnc1C(C)C the result was -8.294%. With Cn1nccc1CCC(=O)NCC[C@@H]1CCCN1 the screen gave -12.69%. CN(C)c1ncc(CN2CCS(=O)(=O)CC2)cn1 read 4.182%.

N#Cc1cccnc1N1CCOC(c2nccs2)C1 (centres undefined) gave 36.53%.

The last 4 entries again:

Compound,effect
CCS(=O)(=O)NCCCn1ccnc1C(C)C,-8.294
Cn1nccc1CCC(=O)NCC[C@@H]1CCCN1,-12.69
CN(C)c1ncc(CN2CCS(=O)(=O)CC2)cn1,4.182
N#Cc1cccnc1N1CCOC(c2nccs2)C1 (centres undefined),36.53

Measurements from “University of Dundee, Small-Polar-MMV Screening Library” (2021), ChEMBL document CHEMBL3988442.